The values below come from PMC2211753.

In assay [1] the target is Vpr-R90K fused to the Gal4 DNA binding domain (HIV-1 (strain not stated)) (UniProt P05928). The assay is described as follows: two-hybrid; L40 yeast strain; Vpr fused to the Gal4 DNA binding domain (lower panels of Figure 1A) with Gal4AD hybrids; growth without histidine and β-gal assay.
The target of assay [2] is Vpr-W54R fused to the Gal4 DNA binding domain (HIV-1 (strain not stated)) (UniProt P05928). The description is as above.

Results are given in words; binding and its absence hold for the method and conditions named. Binding can be weak; no strength is given. Where a sequence is shown, tags or fusion partners need not be part of it.

B1: human CG1 nucleoporin fused to the Gal4 activation domain (protein, UniProt O15504 1-423)
chain: MAICQFFLQGRCRFGDRCWNEHPGARGAGGGRQQPQQQPSGNNRRGWNTTSQRYSNVIQPSSFSKSTPWGGSRDQEKPYFSSFDSGASTNRKEGFGLSENPFASLSPDEQKDEKKLLEGIVKDMEVWESSGQWMFSVYSPVKKKPNISGFTDISPEELRLEYHNFLTSNNLQSYLNSVQRLINQWRNRVNELKSLNISTKVALLSDVKDGVNQAAPAFGFGSSQAATFMSPGFPVNNSSSDNAQNFSFKTNSGFAAASSGSPAGFGSSPAFGAAASTSSGISTSAPAFGFGKPEVTSAASFSFKSPAASSFGSPGFSGLPASLATGPVRAPVAPAFGGGSSVAGFGSPGSHSHTAFSKPSSDTFGNSSISTSLSASSSIIATDNVLFTPRDKLTVEELEQFQSKKFTLGKIPLKPPPLELLNV
Turning to B1, the binding entry in assay [1] and in assay [2] was “binds” each time.
